In article PMC7618075:
Results are given in words; binding and its absence hold for the method and conditions named. Some entries that bind do so weakly or less than the wild type.

Target: T1, recombinant human CASPR2 protein (human) (UniProt Q9UHC6)
T1 sequence: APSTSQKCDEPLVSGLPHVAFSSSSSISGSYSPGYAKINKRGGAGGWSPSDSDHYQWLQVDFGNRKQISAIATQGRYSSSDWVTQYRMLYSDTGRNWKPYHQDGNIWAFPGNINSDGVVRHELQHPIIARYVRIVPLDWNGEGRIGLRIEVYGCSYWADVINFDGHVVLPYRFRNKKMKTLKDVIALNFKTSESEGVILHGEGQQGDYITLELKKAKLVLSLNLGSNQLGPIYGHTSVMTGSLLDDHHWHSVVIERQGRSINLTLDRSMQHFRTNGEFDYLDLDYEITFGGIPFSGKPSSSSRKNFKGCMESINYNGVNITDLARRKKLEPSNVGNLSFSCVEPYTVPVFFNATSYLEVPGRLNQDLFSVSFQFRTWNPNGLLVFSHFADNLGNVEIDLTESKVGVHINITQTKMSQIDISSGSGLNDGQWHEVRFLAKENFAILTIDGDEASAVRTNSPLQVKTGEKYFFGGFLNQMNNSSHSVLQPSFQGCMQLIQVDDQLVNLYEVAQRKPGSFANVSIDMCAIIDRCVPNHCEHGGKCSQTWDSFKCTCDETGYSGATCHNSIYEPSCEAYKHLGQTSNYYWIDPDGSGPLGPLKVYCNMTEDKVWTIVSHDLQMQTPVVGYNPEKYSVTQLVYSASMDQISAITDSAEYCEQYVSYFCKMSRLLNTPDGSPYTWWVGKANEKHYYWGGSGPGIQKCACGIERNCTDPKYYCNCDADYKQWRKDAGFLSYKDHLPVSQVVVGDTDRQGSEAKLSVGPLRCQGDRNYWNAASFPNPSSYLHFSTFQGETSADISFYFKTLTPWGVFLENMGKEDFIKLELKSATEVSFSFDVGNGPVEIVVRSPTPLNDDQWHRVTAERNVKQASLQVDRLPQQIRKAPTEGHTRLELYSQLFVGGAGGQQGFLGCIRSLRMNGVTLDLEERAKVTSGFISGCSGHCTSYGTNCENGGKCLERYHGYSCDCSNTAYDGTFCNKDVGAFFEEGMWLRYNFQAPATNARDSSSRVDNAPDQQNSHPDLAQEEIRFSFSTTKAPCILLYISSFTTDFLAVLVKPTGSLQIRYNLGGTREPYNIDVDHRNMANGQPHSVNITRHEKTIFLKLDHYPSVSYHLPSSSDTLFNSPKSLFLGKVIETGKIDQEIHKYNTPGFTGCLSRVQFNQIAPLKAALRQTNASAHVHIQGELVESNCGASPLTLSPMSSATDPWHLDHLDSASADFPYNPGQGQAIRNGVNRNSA
Experiment: ELISA; solid phase binding assay; 100 ng/well CASPR2 coated in 20 mM Tris pH 8.0, 100 mM NaCl, 5 mM CaCl2; 100 ng contactin 2 for 1 h at RT; CASPR2 mAbs or isotype control then added in dilution series; contactin 2 detected with mouse anti-human contactin 2 antibody and HRP anti-mouse IgG; both purified

binding: binds
B1: contactin 2 (protein, UniProt Q02246 31-1012)
chain: SQTTFGPVFEDQPLSVLFPEESTEEQVLLACRARASPPATYRWKMNGTEMKLEPGSRHQLVGGNLVIMNPTKAQDAGVYQCLASNPVGTVVSREAILRFGFLQEFSKEERDPVKAHEGWGVMLPCNPPAHYPGLSYRWLLNEFPNFIPTDGRHFVSQTTGNLYIARTNASDLGNYSCLATSHMDFSTKSVFSKFAQLNLAAEDTRLFAPSIKARFPAETYALVGQQVTLECFAFGNPVPRIKWRKVDGSLSPQWTTAEPTLQIPSVSFEDEGTYECEAENSKGRDTVQGRIIVQAQPEWLKVISDTEADIGSNLRWGCAAAGKPRPTVRWLRNGEPLASQNRVEVLAGDLRFSKLSLEDSGMYQCVAENKHGTIYASAELAVQALAPDFRLNPVRRLIPAARGGEILIPCQPRAAPKAVVLWSKGTEILVNSSRVTVTPDGTLIIRNISRSDEGKYTCFAENFMGKANSTGILSVRDATKITLAPSSADINLGDNLTLQCHASHDPTMDLTFTWTLDDFPIDFDKPGGHYRRTNVKETIGDLTILNAQLRHGGKYTCMAQTVVDSASKEATVLVRGPPGPPGGVVVRDIGDTTIQLSWSRGFDNHSPIAKYTLQARTPPAGKWKQVRTNPANIEGNAETAQVLGLTPWMDYEFRVIASNILGTGEPSGPSSKIRTREAAPSVAPSGLSGGGGAPGELIVNWTPMSREYQNGDGFGYLLSFRRQGSTHWQTARVPGADAQYFVYSNESVRPYTPFEVKIRSYNRRGDGPESLTALVYSAEEEPRVAPTKVWAKGVSSSEMNVTWEPVQQDMNGILLGYEIRYWKAGDKEAAADRVRTAGLDTSARVSGLHPNTKYHVTVRAYNRAGTGPASPSANATTMKPPPRRPPGNISWTFSSSSLSIKWDPVVPFRNESAVTGYKMLYQNDLHLTPTLHLTGKNWIEIPVPEDIGHALVQIRTTGPGGDGIPAEVHIVRNGGTSMMVEN
